# About 6,100 (1.1%) of roughly 580,000 compounds were called active. The shares of active, inactive and inconclusive entries below differ from those in the screen. Calls follow the shape of the dose curve; as a rule, active = well fitted inhibition curve with a large enough effect; inconclusive = small, poorly fitted or top-dose-only effect, or another doubt; inactive = no such curve, though single readings can be large or run the other way. Potencies of inconclusive entries are doubtful fits and often do not repeat.
# Sequences of proteins named here, by UniProt entry; tags and fusion partners are left off. A change or cut given only in a name is not applied to a line headed by its entry.
# UniProt P18054: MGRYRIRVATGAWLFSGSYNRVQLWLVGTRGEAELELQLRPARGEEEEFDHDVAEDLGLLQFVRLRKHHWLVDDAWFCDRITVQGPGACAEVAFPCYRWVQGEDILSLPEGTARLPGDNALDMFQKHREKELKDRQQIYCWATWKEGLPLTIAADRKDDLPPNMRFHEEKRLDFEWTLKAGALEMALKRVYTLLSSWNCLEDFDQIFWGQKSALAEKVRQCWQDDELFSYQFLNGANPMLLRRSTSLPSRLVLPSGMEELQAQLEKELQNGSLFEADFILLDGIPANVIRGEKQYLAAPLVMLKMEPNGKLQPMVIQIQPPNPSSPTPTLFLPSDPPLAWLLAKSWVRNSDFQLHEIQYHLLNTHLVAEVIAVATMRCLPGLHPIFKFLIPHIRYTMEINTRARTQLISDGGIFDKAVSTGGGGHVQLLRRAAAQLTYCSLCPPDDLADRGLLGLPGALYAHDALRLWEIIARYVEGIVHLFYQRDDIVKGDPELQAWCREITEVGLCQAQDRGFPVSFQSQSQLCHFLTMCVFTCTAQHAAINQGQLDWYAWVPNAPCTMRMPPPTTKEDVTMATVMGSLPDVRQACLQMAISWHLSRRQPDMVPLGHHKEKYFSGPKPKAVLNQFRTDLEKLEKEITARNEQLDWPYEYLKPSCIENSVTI
# Target: Polyunsaturated fatty acid lipoxygenase ALOX12 (Homo sapiens) (UniProt P18054)
# Experiment: Primary qHTS assay for inhibitors of human arachidonate 12S-lipoxygenase (ALOX12): Round 2
# Conditions: purified 12hLO, xylenol orange hydroperoxide absorbance; activity change, negative = inhibition: at 108 µM (top of the series) unless noted
# How it was run: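 Purified human 12hLO at 150 nM in 25 mM Hepes, 0.01% Triton X-100, pH 7.0, preincubated 15 min at room temperature with compound. Reaction started with 40 uM arachidonic acid, 30 min at room temperature. Hydroperoxide measured by Fe-xylenol orange, 573/405 nm absorbance ratio.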
# % is scaled to controls: 0 for no effect and ±100 for the full control effect; potency is read from the fitted curve at half-maximal effect.
Compound,"activity change, negative = inhibition",Potency
Cc1ccc(NC(=O)c2nn(C)c(=O)c3ccccc23)cc1Cl,inactive: 7.77%,–
O=C(Nc1ccccc1)O[C@@H]1CO[C@H]2[C@@H]1OC[C@@H]2NC(=S)Nc1ccc(F)cc1,–,"inconclusive: 63.1 µM [inhibitor, partial curve]"
O=[N+]([O-])c1ccc2c3n([n+]([O-])c2c1)CCN=C3c1ccc(Cl)cc1,–,"inconclusive: 39.8 µM [inhibitor, partial curve]"
O=C(Nc1ccc(N2CCCCC2)cc1)c1ccc(F)cc1F,inactive: 152%,–
Cc1noc(/C=C/N(C)C)c1S(=O)(=O)N1CCCC(C(=O)NCc2ccc(Cl)cc2)C1 (stereo not drawn),–,"inconclusive: 50.1 µM [inhibitor, partial curve, poor fit]"
CC/C(=C\c1ccc(Cl)cc1)c1ccncc1,–,"inconclusive: 44.7 µM [inhibitor, partial curve, poor fit]"
Cc1oc2cc(OCC(=O)OC(C)C)ccc2c(=O)c1-c1ccc(Cl)cc1,inactive: 6.25%,–
N#CCc1ccc(Oc2ncccn2)cc1,inactive: 0%,–
CCOC(=O)c1cnc2c(C(F)(F)F)cccc2c1N1CCN(C)CC1,–,"inconclusive: 112 µM [inhibitor, single point]"
CCOC(=O)/C=C1\SCC(=O)N1CC(=O)Nc1ccc2c(c1)CCC2,inactive: 2.18%,–
CC(=O)N1CCN(C(=S)c2ccc(N(C)C)cc2)CC1,–,"inconclusive: 44.7 µM [inhibitor, partial curve, poor fit]"
Cc1nc2ccc(Cl)cc2cc1C(=O)NCc1cccnc1OC(C)C,–,"inconclusive: 50.1 µM [inhibitor, partial curve, poor fit]"
CC(=O)N(C)c1ccc(NC(=O)Cc2cccc3ccccc23)cc1,–,"inconclusive: 126 µM [inhibitor, single point]"
Cc1ccc(C(c2nnnn2CCc2ccccc2)N2CCC(C)CC2)cc1 (stereo not drawn),–,"inconclusive: 56.2 µM [inhibitor, partial curve, poor fit]"
Cn1c(=O)c2c(=O)cc(NNC(=O)C(C)(C)C)[nH]c2n(C)c1=O,inactive: -9.45%,–
COc1ccc(N2C(=O)C3C(C2=O)C3(c2ccccc2)c2ccccc2)cc1 (stereo not drawn),–,"inconclusive: 100 µM [inhibitor, partial curve, poor fit]"
Cc1coc2c(C)c3oc(=O)c(CCC(=O)NCCN4CCOCC4)c(C)c3cc12,inactive: 6.86%,–
O=C(Nc1ccsc1C(=O)O)c1ccc(Cl)cc1,–,"inconclusive: 1.58 µM [inhibitor, full curve, poor fit]"
CCCCn1c(=O)[nH]c2nc3cc(N)ccc3nc2c1=O,–,"inconclusive: 12.6 µM [inhibitor, partial curve, poor fit]"
O=C(c1n[nH]c2ccccc12)N1CCC(Cc2nc(-c3ccncc3)n[nH]2)CC1,–,"inconclusive: 8.91 µM [inhibitor, full curve, poor fit]"
Cc1cc(C)cc(N=Cc2[nH]c3ccc(Br)c(Cl)c3c2O)c1,–,"inconclusive: 44.7 µM [inhibitor, partial curve, poor fit]"
CC(C)(C)C(=O)COC(=O)c1cc(-c2cccs2)nc2ccccc12,–,"inconclusive: 100 µM [inhibitor, single point]"

Compound,"activity change, negative = inhibition",Potency
Cc1cccnc1C(NC(=O)C1CCN(Cc2ccc(Cl)cc2)CC1)c1ccc(F)cc1 (stereo not drawn),inconclusive: -38% [inhibitor],–
CCOCC(=O)N1C[C@@H](Oc2ccccc2)C[C@H]1C(=O)N1CCCC1,inactive: 19.8%,–
Cc1cc[n+](CC(=O)N2CCCc3ccccc32)cc1,–,"inconclusive: 44.7 µM [inhibitor, partial curve, poor fit]"
COC(=O)C1=C(C)N(Cc2ccc(C(F)(F)F)cc2)C(=NCC2CC2)NC1c1ccccc1C(F)(F)F (stereo not drawn),–,"inconclusive: 50.1 µM [inhibitor, partial curve, poor fit]"
CC(C)c1ccc(NS(=O)(=O)c2ccc3[nH]cc(C(=O)NC4CCCC4)c(=O)c3c2)cc1,–,"inconclusive: 31.6 µM [inhibitor, partial curve, poor fit]"
CN1CC2(CCN(C(=O)c3cccn3C)CC2)CC(c2ccccc2)C1=O (stereo not drawn),–,"inconclusive: 28.2 µM [inhibitor, partial curve, poor fit]"
CCOC(=O)[C@@H]1[C@H]2COc3ccc(Br)cc3[C@@H]2N2C(=O)N(c3cccc(F)c3)C(=O)[C@@]12C,inactive: -14.2%,–
CSc1ccc(CN(C)CC(=O)NC(=O)NCc2ccccc2)cc1,inactive: 6.07%,–
CC(=O)N1CCN(c2ccc(NC(=O)c3ccccc3Br)cc2Cl)CC1,–,"inconclusive: 0.282 µM [inhibitor, full curve, poor fit]"
Cc1nc(N)sc1-c1csc(Nc2ncccn2)n1,inactive: -22.9%,–
CC(C)C(=O)Oc1ccc2c(=O)c(-c3ccc(Cl)cc3)coc2c1,–,"inconclusive: 56.2 µM [inhibitor, partial curve, poor fit]"
CC(C)(C)C(=O)NC(NC(=O)C(C)(C)C)c1ccc(F)cc1,–,"inconclusive: 28.2 µM [inhibitor, partial curve, poor fit]"
C=CCOC(=O)C1=C(C)NC(=S)NC1c1cccs1 (stereo not drawn),–,"inconclusive: 89.1 µM [inhibitor, partial curve, poor fit]"
CC(C)=CCCC(C)NC(=O)NC1CCCCC1 (stereo not drawn),–,"inconclusive: 1.12 µM [inhibitor, full curve, poor fit]"
O=C(c1nc2nc(-c3ccccc3)cc(C(F)(F)F)n2n1)N1CCCCC1,inactive: 5.6%,–
CN(Cc1cccc(OC(F)(F)F)c1)C(=O)C1(c2ccc(Cl)cc2)CCOCC1,inactive: 8% [at 6.33 µM],–
NC(=O)c1cc[nH]c1C1CCCN(C(=O)CCc2nc3ccccc3s2)C1 (stereo not drawn),inactive: 9.81%,–
c1ccc(Oc2cccc3cccnc23)nc1,inactive: -27.1%,–
COC(CN(C)C(=S)NCC(=O)O)OC,inconclusive: -31.3% [inhibitor],–
COc1cccc(C2C(C(=O)c3cccs3)=C(O)C(=O)N2CCN2CCOCC2)c1 (stereo not drawn),–,"inconclusive: 35.5 µM [inhibitor, single point]"
Cc1noc(C(C)Nc2ccc3oc(C(C)(C)C)nc3c2)n1 (stereo not drawn),–,"inconclusive: 89.1 µM [inhibitor, single point]"

# Single records, from the list above:
# C=CCOC(=O)C1=C(C)NC(=S)NC1c1cccs1 (stereo not drawn) is listed with Potency: inconclusive: 89.1 µM [inhibitor, partial curve, poor fit]
# c1ccc(Oc2cccc3cccnc23)nc1 is listed with activity change, negative = inhibition: inactive: -27.1%
